Experimental data reported in PubChem BioAssay AID540276 (National Center for Advancing Translational Sciences (NCATS), 2011).
Several values for one entry are separate records, joined by “and”; a condition that tells them apart may be missing. Equal entries are not always repeated. In all, about 300,000 compounds went through this assay and about 5,400 (1.8%) were called active. The shares of active, inactive and inconclusive entries below differ from those in the screen. The call rests on the fitted dose curve; tested in HEK293 cells. Potencies beside an inconclusive call are fits to weak or partial responses and may not hold up. Where a structure was tested more than once in an assay, its records may differ in their call.

Assay: qHTS for inhibitors of binding or entry into cells for Marburg Virus
Details: Marburg virus pseudotyped entry inhibition, cell reporter; activity change, negative = inhibition: at 37.8 µM (top of the series) unless noted
On the % scale 0 is the no-effect control and ±100 the full control effect; potency means the concentration at half of the fitted maximal effect.

| Structure (SMILES) | Potency | activity change, negative = inhibition |
| --- | --- | --- |
| C/C(=N\NC(=O)c1nc2ccccn2c1C)c1cc2ccccc2o1 | inconclusive: 28.2 µM [inhibitor, partial curve, poor fit] | – |
| CCc1ccc(C(=O)CCC(=O)Nc2cccc(S(=O)(=O)N3CCCCC3)c2)cc1 | inconclusive: 7.08 µM [inhibitor, partial curve, poor fit] | – |
| O=C(NCCCNc1ccc(C(F)(F)F)cc1[N+](=O)[O-])c1cc(F)c(F)cc1Cl | inconclusive: 11.2 µM [inhibitor, partial curve] | – |
| CC(NC(=O)CSc1nnc(-c2cccc(S(=O)(=O)N3CCCCC3)c2)o1)C12CC3CC(CC(C3)C1)C2 (centres undefined) | inconclusive: 15.8 µM [inhibitor, single point] | – |
| Cc1ccccc1NC(=O)c1cn(-c2ccccc2)nc1-c1ccccc1 | inactive | – |
| CCC(=NCCN1CCOCC1)c1c(O)n(-c2ccccc2C)c(=O)[nH]c1=O | inactive | – |
| COc1ccc(/C=N/NC(=O)c2cc(-c3ccc(C)cc3C)nc3ccccc23)cc1COC(C)=O | inconclusive: 20 µM [inhibitor, single point] | – |
| Cc1nnc(NC(=O)c2ccccc2F)s1 | inconclusive: 1.46 µM [activator, full curve] | – |
| O=C(NCCc1ccccc1)c1ccc2nc(N3CCCCC3)sc2c1 | inconclusive: 15.8 µM [activator, single point] | – |
| CCCNC(=O)Cn1cnc([N+](=O)[O-])n1 | inconclusive: 1.84 µM [inhibitor, partial curve] | – |
| N#C/C(=C/c1ccc(OCc2ccccc2)cc1)C(=O)NC1CCCCC1 | inconclusive: 13 µM [inhibitor, partial curve, poor fit] | – |
| COc1cc(/C=N/O)cc(Br)c1OC | inactive | – |
| C#CCOC(=O)C1=CCCN(C)C1 | inconclusive: 4.6 nM [inhibitor, full curve, poor fit] and inconclusive: 35.5 µM [inhibitor, single point] | – |
| CN(C(=O)/C=C/c1cnc2ccccc2c1)C1CCCCC1 | inconclusive: 2.82 µM [activator, partial curve, poor fit] | – |
| COc1cccc(OC)c1C(=O)Nc1ccncc1 | inactive | – |
| CCOC(=O)c1c(Nc2ccc(O)cc2)nnc(-c2ccccc2)c1-c1ccccc1 | inconclusive: 0.562 µM [inhibitor, full curve, poor fit] | – |
| COc1ccc2cc(C3CC(c4ccco4)=NN3C(=O)CCC(=O)O)c(Cl)nc2c1 (centres undefined) | inconclusive: 31.6 µM [activator, single point] | – |
| C=CCn1c(SCC(=O)c2ccccc2)nnc1-c1cc2ccccc2o1 | inconclusive: 20 µM [inhibitor, single point] | – |
| O=C(c1ccccc1)N1CCc2ccccc21 | inactive | – |
| c1ccc2c(Cn3ccnc3)c[nH]c2c1 | inactive | – |
| COCCNC(=O)/C(C#N)=C/c1cn(CC(=O)NCc2ccco2)c2ccccc12 | inconclusive: 31.6 µM [inhibitor, single point] | – |
| Cc1cc(C)cc(-n2nnnc2SCC(=O)Nc2nc(-c3ccc(F)cc3)cs2)c1 | inconclusive: 16.4 µM [inhibitor, single point] | – |
| O=C(/C=C/c1cccs1)N1CCc2ccccc21 | active: 8.2 µM | – |

Random excerpt: 2 compounds from above, in no set order.

| Structure (SMILES) | Potency | activity change, negative = inhibition |
| --- | --- | --- |
| C=CCn1c(SCC(=O)c2ccccc2)nnc1-c1cc2ccccc2o1 | inconclusive: 20 µM [inhibitor, single point] | – |
| c1ccc2c(Cn3ccnc3)c[nH]c2c1 | inactive | – |

Further compounds follow:

| Structure (SMILES) | Potency | activity change, negative = inhibition |
| --- | --- | --- |
| CCC(CC)C(=O)N1CCN(c2cccc(C)c2C)CC1 | inconclusive: 12.6 µM [inhibitor, partial curve, poor fit] | – |
| CC12CCC(C(=O)N(CSC(=S)N/N=C\c3ccccc3)C1=O)C2(C)C (centres undefined) | inactive | – |
| O=C(c1cnc2n(c1=O)CCS2)N1CCN(C(c2ccccc2)c2ccc(Cl)cc2)CC1 (centres undefined) | inactive | – |
| CC1(C)Cc2c(sc3nc(-c4ccccc4)n(N)c(=O)c23)CO1 | – | inconclusive: 46.3% [activator] |
| CCCNC(=O)Cn1cnc2sc(C(=O)N3CCN(Cc4ccc5c(c4)OCO5)CC3)c(C)c2c1=O | inconclusive: 35.5 µM [inhibitor, single point] | – |
| Cc1cccc(N2CCN(C(c3cccs3)c3nnnn3C(C)(C)C)CC2)c1C (centres undefined) | inactive and active: 11.6 µM | – |
| Clc1cc2nc3ccccn3c2cc1Cl | inactive | – |
| COc1cccc(CNC(=O)CSc2nnc3c(n2)[nH]c2ccc(OC)cc23)c1 | inconclusive: 5.62 µM [activator, single point] | – |
| CCc1c(C)nc2ncnn2c1NCCc1ccc(OC)cc1 | inconclusive: 5.8 µM [inhibitor, partial curve, poor fit] | – |
| CCCCOP(=O)(OCCCC)C(Nc1ccccc1)c1ccc2c(c1)OCO2 (centres undefined) | inconclusive: 35.5 µM [inhibitor, single point] | – |
| COc1ccc(C(=O)NNC(=S)NC(=O)c2ccccc2[N+](=O)[O-])cc1 | inconclusive: 0.891 µM [inhibitor, full curve, poor fit] | – |
| O=[N+]([O-])c1cccc(-c2csc(Nc3ccccc3)n2)c1 | inconclusive: 3.16 µM [inhibitor, single point] | – |
| O=C1[C@H]2[C@H]3[C@H](O)[C@H](O)C/C(=N/OCc4ccccc4)[C@@H]3CC[C@@H]2C(=O)N1Cc1ccc2c(c1)OCO2 | inactive | – |
| CCOC(=O)c1sc(NC(=O)CCCCl)nc1C | inconclusive: 10 µM [activator, partial curve, poor fit] | – |
| O=C(CSc1nnc(COc2ccc(Cl)cc2)o1)N1CCCC1 | – | inconclusive: 5.89% [activator] [at 46.1 µM] |
| CCCCCCCCCCCCCCCC(=O)OCC1OC(n2ccc(N)nc2=O)C(O)C1O (centres undefined) | inactive | – |
| CCN(CC)CCCNc1ncnc2ccccc12 | inconclusive: 2.24 µM [inhibitor, partial curve, poor fit] | – |
| COc1cccc(-n2sc3c(c2=S)-c2cc(OC)ccc2NC3(C)C)c1 | inconclusive: 7.94 µM [inhibitor, partial curve, poor fit] | – |
| Cc1cc(C)cc(Oc2nc3ccccn3c(=O)c2/C=C(\C#N)C(=O)NC2CCS(=O)(=O)C2)c1 (centres undefined) | inconclusive: 35.5 µM [inhibitor, single point] | – |
| COc1ccc(N=C2SC(C(N)=O)CC(=O)N2CCc2ccc(OC)c(OC)c2)cc1 (centres undefined) | inactive | – |
| CN(CC(=O)Nc1ccc(Cl)c(C(F)(F)F)c1)C(=O)C1(c2ccccc2)CC1 | inconclusive: 15.8 µM [inhibitor, single point] | – |
| Cc1ccc(N(C(=O)c2csnn2)C(C(=O)NC2CCCCC2)c2ccco2)cc1 (centres undefined) | inconclusive: 2.24 µM [inhibitor, full curve, poor fit] | – |
| CCOc1ccc(NC(=O)CN(c2cccc(C(F)(F)F)c2)S(C)(=O)=O)cc1 | inconclusive: 20.6 µM [activator, single point] | – |

| Structure (SMILES) | Potency | activity change, negative = inhibition |
| --- | --- | --- |
| O=S(=O)(c1cccc(-c2nc3ccccc3s2)c1)N1CCOCC1 | inactive | – |
| Cc1cccc(C)c1NC(=O)COC(=O)c1cccc2c1C(=O)c1ccccc1C2=O | inconclusive: 0.316 µM [activator, full curve, poor fit] | – |
| O=C(NN1C(=O)c2ccccc2C1=O)C1C2CCCCC21 (centres undefined) | inconclusive: 35.5 µM [inhibitor, single point] | – |
| O=C1c2ccccc2NC(c2ccco2)N1O (centres undefined) | inactive | – |
| Cc1ccn2cc(-c3cccc(NS(C)(=O)=O)c3)nc2c1 | inactive | – |
| Cc1cc(C2(c3ccc(O)c(C)c3)C(=O)Nc3ccccc32)ccc1O | inconclusive: 35.5 µM [inhibitor, single point] | – |
| COc1cccc(N2CCN(C(=O)c3cc4c(s3)-c3c(C)cccc3OC4)CC2)c1 | inactive | – |
| Clc1ccccc1N1CCN(Cc2c[nH]c3ccccc23)CC1 | inconclusive: 12.6 µM [inhibitor, partial curve, poor fit] | – |
| COc1ccc(N(CC(=O)NCc2ccc(F)cc2)C(=O)Cn2nnc(-c3ccc(C)o3)n2)cc1OC | inactive | – |
| Clc1ccc(-c2nc3ccccc3nc2-c2ccccc2)cc1 | inactive | – |
| Cc1ccccc1OCC(=O)Nc1cccc2nsnc12 | inactive | – |
| Cc1ccccc1CC1(CO)CCCN(C(=O)c2cc(Cl)ccc2F)C1 (centres undefined) | inconclusive: 11.2 µM [inhibitor, single point] | – |
| Cc1cc(N2CCOCC2)n2nc(-c3cccc(F)c3)cc2n1 | inactive | – |
| Cc1ccc(NC(=O)CSc2nnc(-c3nnn(-c4ccc(F)cc4)c3C)o2)cc1Br | inconclusive: 31.6 µM [activator, single point] | – |
| CCCC1=C(C(=O)OCC)C(/C=C/c2ccccc2)n2ncnc2N1 (centres undefined) | active: 9.2 µM | – |
| Cc1ccc(-n2c(Cc3cccn3C)nnc2SCC(=O)N2CCN(c3ccccc3)CC2)cc1 | inactive | – |
| Cc1nn(CCC(N)=O)c2nc(-c3cccs3)cc(C(F)(F)F)c12 | inconclusive: 1.78 µM [inhibitor, partial curve, poor fit] | – |
| O=C(Nc1nnc(C2CC2)s1)c1ccco1 | inconclusive: 35.5 µM [inhibitor, single point] | – |
| Cc1cc(Br)ccc1OCC(=O)N(Cc1nc(-c2ccccc2)no1)C(C)C | inconclusive: 4.11 µM [inhibitor, partial curve, poor fit] | – |
| Cc1nn(-c2ncc(C(F)(F)F)cc2Cl)c(=O)n1-c1ccccc1Cl | inconclusive: 1.26 µM [inhibitor, single point] | – |
| COc1ccc(CNC(=O)c2cc3cc4ccc(C)cc4nc3o2)cc1 | inconclusive: 2.24 µM [inhibitor, partial curve, poor fit] | – |
| COc1ccc(C(CCN(Cc2ccc(OC)c(OC)c2)C(C)=O)c2ccccc2)cc1 (centres undefined) | inactive | – |
| COc1ccccc1CCNC(=O)C(=O)NCCC1CCCCN1S(=O)(=O)c1ccccc1 (centres undefined) | inconclusive: 17.8 µM [inhibitor, partial curve, poor fit] | – |

Single values from above.
Under Potency, C#CCOC(=O)C1=CCCN(C)C1 has inconclusive: 4.6 nM [inhibitor, full curve, poor fit] and inconclusive: 35.5 µM [inhibitor, single point]
Under Potency, Cc1cccc(C)c1NC(=O)COC(=O)c1cccc2c1C(=O)c1ccccc1C2=O has inconclusive: 0.316 µM [activator, full curve, poor fit]
